Data from US6884907B2, “Hydroxamic acids and acyl hydroxamines as naaladase inhibitors” (Guilford Pharmaceuticals Inc., priority 2001, dated 2005).

Tested on: rats with unilateral IOP elevation
Assay: Experimental rat glaucoma (IOP elevation, optic nerve fiber counting)
Format: in vivo, Brown Norway rats (Rattus norvegicus)
Details: 10 mg/kg i.p. daily, glaucoma eye versus normal eye

SMILES | IOP Integral Difference (8 Week group) | IOP Integral Difference (12 Week group)
O=C(O)CCC(CP(=O)(O)Cc1c(F)c(F)c(F)c(F)c1F)C(=O)O (stereo not drawn) [Compound A, 2-[[(2,3,4,5,6-pentafluorobenzyl)hydroxyphosphinyl]methyl]pentanedioic acid] | 85 ± 37.5 mm Hg-days | –
O=C(O)CCC(CCCS)C(=O)O (stereo not drawn) [Compound B, 2-(3-sulfanylpropyl)pentanedioic acid] | 116 ± 33.2 mm Hg-days | 109 ± 45.2 mm Hg-days
